PubChem BioAssay AID686943 – Drosophila RNAi Screening Center | 2013

Test: 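Search across the genome for regulators of signalling from receptor tyrosine kinase to ERK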 (primary screen)
Cell system: Drosophila S2R+ haemocyte-like cells expressing YFP-tagged ERK (Rolled)
Reagents: long dsRNA against Drosophila genes
Treatment: insulin stimulation versus unstimulated cells; dose and duration not given
Read-out: 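Per-plate z-scores of phospho-ERK immunostaining normalised to YFP-tagged ERK, measured with and without insulin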
Direction: replicate 1, z-score of dpERK with insulin and replicate 2, z-score of dpERK with insulin: higher = more active ERK per ERK-YFP after insulin; replicate 1, z-score of dpERK under basal conditions: higher = more basal active ERK per ERK-YFP; replicate 1, z-score of ERK-YFP with insulin: higher = more YFP-tagged ERK signal
The deposit covers about 23,000 reagents; below is a random part of those that have a named target and a result. 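Extra replicates exist only for a retested subset of genes; insulin dose and duration not given; both raised and lowered dpERK matter.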 Reagents against one gene are numbered here. Reagent sequences are not shown. Not given: the amount of reagent, the time to read-out.

The first 2 entries as a preview:
| Target gene | dsRNA no. | replicate 1, z-score of dpERK with insulin | replicate 2, z-score of dpERK with insulin | replicate 1, z-score of dpERK under basal conditions | replicate 1, z-score of ERK-YFP with insulin |
| --- | --- | --- | --- | --- | --- |
| CG34244 | 1 | -1.24 | 0.12 | 0.71 | 0.75 |
| CG13937 | 1 | -0.65 | -0.49 | -0.4 | 0.89 |

Results, from the first entry:
| Target gene | dsRNA no. | replicate 1, z-score of dpERK with insulin | replicate 2, z-score of dpERK with insulin | replicate 1, z-score of dpERK under basal conditions | replicate 1, z-score of ERK-YFP with insulin |
| --- | --- | --- | --- | --- | --- |
| CG34244 | 1 | -1.24 | 0.12 | 0.71 | 0.75 |
| CG13937 | 1 | -0.65 | -0.49 | -0.4 | 0.89 |
| CG4009 | 1 | -0.3 | 0.47 | 0.98 | 0.4 |
| CG11404 | 1 | 0.7 | 0.06 | 0.02 | -0.31 |
| CG7058 | 1 | -0.28 | -0.21 | -0.48 | 0.72 |
| CG33272 | 1 | -3.44 | -3.86 | -0.21 | -2.28 |
| CG43155 | 1 | 0.85 | -0.11 | 0.63 | -0.71 |
| CG43155 | 2 | 0.63 | 0.71 | 1.83 | 0.03 |
| CG31207 | 1 | -0.16 | 0.48 | -0.44 | 0.18 |
| Sap30 | 1 | -0.65 | -0.28 | -1.73 | 0.09 |
| CG13833 | 1 | -0.35 | -0.19 | 0.69 | 0.4 |
| Idgf3 | 1 | 0.7 | 0.1 | -0.03 | 0.5 |
| CG5783 | 1 | -0.71 | -1.18 | -0.71 | 0.18 |
| CG33262 | 1 | -0.23 | 0.49 | 0.79 | 0.99 |
| loj | 1 | -0.73 | 0.07 | 0.38 | 0.68 |
| RhoGAP18B | 1 | 0.47 | 1.9 | -0.73 | -0.24 |
| RhoGAP18B | 2 | 0 | 2.09 | -0.65 | 0.56 |
| RhoGAP18B | 3 | -1.66 | 1.06 | -1.1 | 2.46 |
| RhoGAP18B | 4 | -0.45 | -0.5 | -0.76 | -0.22 |
| CG14000 | 1 | -0.01 | -0.67 | 1.48 | 0.52 |
| Raf | 1 | -1.17 | -3.84 | -0.59 | 1 |
| Vha44 | 1 | 1.36 | -0.28 | -1.36 | -0.19 |
| Vha44 | 2 | 0.46 | 0.4 | 1.12 | -0.23 |
